According to article PMC9015699:
No constants are given. Whether binding was seen depends on the method and setting. Binding seen in cells or lysates may run through a third protein. A result given as binding can be weak or reduced; the word gives no strength.

Protein sequences, listed by entry. Tags and fused reporters are not part of them. Lines headed by an entry give the natural chain unless they say otherwise; changes in a name come on top. Residues count along the entry.
UniProt Q99J83: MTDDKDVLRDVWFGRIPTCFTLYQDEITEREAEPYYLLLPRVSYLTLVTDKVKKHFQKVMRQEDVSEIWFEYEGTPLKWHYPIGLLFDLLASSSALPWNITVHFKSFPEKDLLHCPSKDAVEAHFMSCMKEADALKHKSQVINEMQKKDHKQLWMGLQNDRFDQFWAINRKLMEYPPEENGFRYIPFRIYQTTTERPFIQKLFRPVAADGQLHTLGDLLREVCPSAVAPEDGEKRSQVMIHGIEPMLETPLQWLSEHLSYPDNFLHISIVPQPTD
UniProt Q61194: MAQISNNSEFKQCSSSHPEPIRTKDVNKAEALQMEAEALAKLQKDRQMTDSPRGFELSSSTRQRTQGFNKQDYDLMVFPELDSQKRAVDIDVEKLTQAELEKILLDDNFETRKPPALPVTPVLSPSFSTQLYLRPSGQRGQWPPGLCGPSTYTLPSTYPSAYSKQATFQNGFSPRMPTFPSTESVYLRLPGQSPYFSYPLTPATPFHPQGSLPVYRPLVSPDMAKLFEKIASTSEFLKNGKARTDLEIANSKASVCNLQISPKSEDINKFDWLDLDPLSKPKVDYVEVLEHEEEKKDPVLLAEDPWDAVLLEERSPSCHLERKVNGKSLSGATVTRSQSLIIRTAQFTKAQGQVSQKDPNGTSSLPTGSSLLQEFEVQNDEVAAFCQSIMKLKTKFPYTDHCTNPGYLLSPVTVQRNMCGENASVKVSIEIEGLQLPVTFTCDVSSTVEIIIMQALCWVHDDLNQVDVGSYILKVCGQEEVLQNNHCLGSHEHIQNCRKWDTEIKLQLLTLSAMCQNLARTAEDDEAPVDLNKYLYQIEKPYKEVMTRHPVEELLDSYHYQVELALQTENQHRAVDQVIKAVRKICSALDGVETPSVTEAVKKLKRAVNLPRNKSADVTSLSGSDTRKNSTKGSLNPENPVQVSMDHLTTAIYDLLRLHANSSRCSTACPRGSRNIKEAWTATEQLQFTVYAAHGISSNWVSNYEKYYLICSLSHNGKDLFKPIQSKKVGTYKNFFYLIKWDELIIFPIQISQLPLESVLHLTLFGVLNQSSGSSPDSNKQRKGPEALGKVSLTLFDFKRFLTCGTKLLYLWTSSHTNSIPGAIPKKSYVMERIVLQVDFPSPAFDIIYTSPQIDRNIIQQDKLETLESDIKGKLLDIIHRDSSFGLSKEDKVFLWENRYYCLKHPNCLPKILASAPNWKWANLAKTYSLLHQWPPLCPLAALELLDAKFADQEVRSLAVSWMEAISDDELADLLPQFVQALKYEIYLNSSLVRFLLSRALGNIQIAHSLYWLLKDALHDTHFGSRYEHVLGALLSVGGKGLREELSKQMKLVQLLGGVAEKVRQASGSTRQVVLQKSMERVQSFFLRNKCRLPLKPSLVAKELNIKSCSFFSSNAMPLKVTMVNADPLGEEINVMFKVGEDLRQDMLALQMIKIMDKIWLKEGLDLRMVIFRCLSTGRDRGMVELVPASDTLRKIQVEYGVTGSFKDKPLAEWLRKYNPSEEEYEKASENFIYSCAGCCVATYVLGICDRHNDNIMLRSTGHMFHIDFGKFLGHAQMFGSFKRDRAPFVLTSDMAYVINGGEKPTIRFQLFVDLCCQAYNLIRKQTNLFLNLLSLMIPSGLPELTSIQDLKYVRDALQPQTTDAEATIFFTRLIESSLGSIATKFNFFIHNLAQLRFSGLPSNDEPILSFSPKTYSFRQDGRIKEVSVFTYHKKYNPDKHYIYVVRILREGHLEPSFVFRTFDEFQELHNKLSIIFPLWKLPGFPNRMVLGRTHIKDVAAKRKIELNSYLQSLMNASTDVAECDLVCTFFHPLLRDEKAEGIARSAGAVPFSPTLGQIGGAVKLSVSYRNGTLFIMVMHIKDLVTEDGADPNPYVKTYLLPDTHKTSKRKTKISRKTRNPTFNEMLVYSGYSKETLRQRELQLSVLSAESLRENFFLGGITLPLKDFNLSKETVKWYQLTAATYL
UniProt Q07113, residues 36-2483: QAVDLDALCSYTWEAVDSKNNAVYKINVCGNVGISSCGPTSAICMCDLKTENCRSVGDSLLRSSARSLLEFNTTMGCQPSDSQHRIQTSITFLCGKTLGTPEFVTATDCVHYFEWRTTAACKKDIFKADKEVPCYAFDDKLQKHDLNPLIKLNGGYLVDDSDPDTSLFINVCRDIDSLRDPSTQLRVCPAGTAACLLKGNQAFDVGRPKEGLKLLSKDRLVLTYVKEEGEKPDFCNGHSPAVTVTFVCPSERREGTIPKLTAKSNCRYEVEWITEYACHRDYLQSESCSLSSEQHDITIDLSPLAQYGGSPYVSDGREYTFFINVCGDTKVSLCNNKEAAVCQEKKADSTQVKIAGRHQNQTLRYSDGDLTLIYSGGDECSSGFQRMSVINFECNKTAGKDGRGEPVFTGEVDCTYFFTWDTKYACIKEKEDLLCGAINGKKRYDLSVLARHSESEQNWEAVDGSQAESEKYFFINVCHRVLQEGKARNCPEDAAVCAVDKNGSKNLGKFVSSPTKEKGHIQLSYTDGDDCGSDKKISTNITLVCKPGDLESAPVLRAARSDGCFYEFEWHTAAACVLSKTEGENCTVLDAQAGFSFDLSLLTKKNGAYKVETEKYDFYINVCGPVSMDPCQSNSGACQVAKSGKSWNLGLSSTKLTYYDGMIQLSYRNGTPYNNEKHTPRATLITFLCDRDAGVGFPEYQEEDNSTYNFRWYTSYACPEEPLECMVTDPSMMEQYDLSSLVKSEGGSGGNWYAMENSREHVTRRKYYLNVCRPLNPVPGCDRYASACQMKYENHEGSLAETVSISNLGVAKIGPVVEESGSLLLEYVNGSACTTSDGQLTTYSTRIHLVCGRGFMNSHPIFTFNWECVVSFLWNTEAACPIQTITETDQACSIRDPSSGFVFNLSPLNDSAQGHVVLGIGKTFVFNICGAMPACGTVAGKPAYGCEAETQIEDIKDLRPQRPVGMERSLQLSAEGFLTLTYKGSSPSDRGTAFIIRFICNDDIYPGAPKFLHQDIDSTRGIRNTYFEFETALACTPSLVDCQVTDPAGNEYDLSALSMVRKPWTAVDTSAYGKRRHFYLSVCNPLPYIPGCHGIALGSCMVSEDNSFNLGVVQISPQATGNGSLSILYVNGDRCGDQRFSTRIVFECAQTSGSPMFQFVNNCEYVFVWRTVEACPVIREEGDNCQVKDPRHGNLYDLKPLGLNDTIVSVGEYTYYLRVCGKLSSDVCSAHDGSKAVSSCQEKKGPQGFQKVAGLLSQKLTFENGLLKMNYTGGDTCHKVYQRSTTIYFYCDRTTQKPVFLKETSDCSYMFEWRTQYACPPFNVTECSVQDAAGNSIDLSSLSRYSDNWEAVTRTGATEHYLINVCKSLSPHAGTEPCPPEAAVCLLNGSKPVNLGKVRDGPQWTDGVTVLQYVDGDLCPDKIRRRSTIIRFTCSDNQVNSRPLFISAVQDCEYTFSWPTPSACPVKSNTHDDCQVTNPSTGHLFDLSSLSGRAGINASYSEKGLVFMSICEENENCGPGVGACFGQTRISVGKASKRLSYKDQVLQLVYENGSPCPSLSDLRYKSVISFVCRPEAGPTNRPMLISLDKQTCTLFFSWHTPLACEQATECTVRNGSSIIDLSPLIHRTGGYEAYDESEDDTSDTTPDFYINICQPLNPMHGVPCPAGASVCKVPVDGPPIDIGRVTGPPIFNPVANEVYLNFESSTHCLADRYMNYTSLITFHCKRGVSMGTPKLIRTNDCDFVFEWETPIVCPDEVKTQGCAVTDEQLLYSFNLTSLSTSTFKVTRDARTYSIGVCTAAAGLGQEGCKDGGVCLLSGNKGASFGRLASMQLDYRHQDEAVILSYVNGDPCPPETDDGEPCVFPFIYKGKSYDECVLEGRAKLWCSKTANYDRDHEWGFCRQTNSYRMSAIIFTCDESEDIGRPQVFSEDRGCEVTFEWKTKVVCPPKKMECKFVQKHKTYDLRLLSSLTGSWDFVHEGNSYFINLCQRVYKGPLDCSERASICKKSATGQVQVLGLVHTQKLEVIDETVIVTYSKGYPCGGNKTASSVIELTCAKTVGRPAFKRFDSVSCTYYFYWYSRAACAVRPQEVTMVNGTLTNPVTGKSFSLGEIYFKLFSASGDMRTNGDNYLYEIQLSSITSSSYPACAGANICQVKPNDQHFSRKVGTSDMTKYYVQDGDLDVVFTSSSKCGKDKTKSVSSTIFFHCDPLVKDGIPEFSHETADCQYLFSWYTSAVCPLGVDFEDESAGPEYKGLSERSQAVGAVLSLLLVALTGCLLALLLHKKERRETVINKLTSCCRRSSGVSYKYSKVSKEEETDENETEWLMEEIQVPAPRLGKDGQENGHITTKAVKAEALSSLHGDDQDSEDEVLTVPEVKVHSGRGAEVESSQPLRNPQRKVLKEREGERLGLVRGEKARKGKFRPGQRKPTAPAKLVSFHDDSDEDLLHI

Tests used:
[1] = biological target: wild-type GFP-ATG5 (mouse) (UniProt Q99J83); experiment: co-IP; GFP pull-downs from atg3-/- MEFs expressing the ATG5 constructs, immunoblotting (Fig. S3C)
[2] = biological target: wild-type GFP-ATG5 (mouse) (UniProt Q99J83); experiment: co-IP; GFP-Trap affinity isolates of lysates from GFP, WT GFP-ATG5 and GFP-ATG5 K130R atg5-/- MEFs after 1 h starvation, immunoblotting; lysis buffer 10 mM Tris, 150 mM NaCl, 0.5% Igepal CA-630, pH 7.5, 1 h at 4 °C

| Substance | binding [1] | binding [2] |
| --- | --- | --- |
| PIK3C2A (phosphatidylinositol-4-phosphate 3-kinase catalytic subunit type 2 alpha) (from UniProt Q61194 1-1686) | binds | binds |
| IGF2R/CI-M6PR (insulin-like growth factor 2 receptor) (from UniProt Q07113 36-2483) |  | binds |
